## Screening data, single-dose tests

Sequences of proteins named here, by UniProt entry; tags and fusion partners are left off. Residues count along the entry.
UniProt A4I591, 1-473: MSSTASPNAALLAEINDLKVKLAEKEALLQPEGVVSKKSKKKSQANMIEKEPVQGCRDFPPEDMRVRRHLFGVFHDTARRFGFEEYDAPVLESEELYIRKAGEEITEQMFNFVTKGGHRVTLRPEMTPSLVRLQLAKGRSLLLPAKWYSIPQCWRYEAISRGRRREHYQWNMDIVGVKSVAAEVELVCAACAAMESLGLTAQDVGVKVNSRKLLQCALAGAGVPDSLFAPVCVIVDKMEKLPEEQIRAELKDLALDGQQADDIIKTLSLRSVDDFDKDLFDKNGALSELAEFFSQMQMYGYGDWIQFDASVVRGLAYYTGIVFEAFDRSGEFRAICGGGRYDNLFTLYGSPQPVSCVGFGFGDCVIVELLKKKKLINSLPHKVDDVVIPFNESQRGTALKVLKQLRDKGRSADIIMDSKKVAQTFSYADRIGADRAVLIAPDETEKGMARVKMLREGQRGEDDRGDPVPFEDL

The filed quantity is “Percent Effect” (%). How 0% and 100% were set is not recorded. Most values in the screen are low, and negative values occur. This is an unselected part of the compounds tested. A dash means the value is not listed here; it may have been measured.

Toxoplasma: 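Assay of Toxoplasma gondii numbers, read through their beta-galactosidase reporter with a colour substrate. Tested at 10 µM. The record gives no direction; the compounds picked for IC50 retests had high values, so higher reads as fewer parasites. Size under these conditions: about 67,000 compounds, about 260 of them at 50% or above in at least one test.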
LiHisRS: 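Enzyme assay of histidyl-tRNA synthetase; the read-out is not stated. Target: Histidine-tRNA ligase, Leishmania infantum (UniProt A4I591). Tested at 30 µM. Higher reads as stronger inhibition (inferred: compounds with an IC50 in retests scored well above the rest). The assay is labelled LdHisRS but filed under L. infantum. About 69,000 compounds were tested under these conditions; 0.6% (about 410) showed 50% or more at least once.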

structure,Toxoplasma,LiHisRS
NC(=O)Nc1cc(F)ccc1SCC(F)F,-9.183,5.479
Cc1ccc(CN(Cc2cc(=O)n3cccc(C)c3n2)C(C)C)o1,-5.367,21.92
Cc1nn(C)c(N(C)C)c1CNC(C)Cc1c(F)cccc1F (stereo not drawn),-3.226,18.75
Cc1cc(NC(=O)CCn2nc(C)c3ccccc32)n(C)n1,-17.67,11.11
CNC(=O)CN1CCOCC2(CCCN(Cc3cccnc3)C2)C1.O=C(O)C(F)(F)F.O=C(O)C(F)(F)F.O=C(O)C(F)(F)F (stereo not drawn),2.475,-
CCCc1nccn1-c1ccc(C(C)O)cc1 (stereo not drawn),1.941,19.17
Cc1ccc(-c2ccnc(NC(c3ncccc3C)C3CC3)n2)c(C)n1 (stereo not drawn),7.305,8.197
O=C(C1NCCc2[nH]cnc21)N1CCC2(C=Cc3ccccc32)CC1 (stereo not drawn),1.275,11.48
Cc1nc2cc(C(=O)N3C[C@@H](C(=O)O)[C@H](c4ccncc4)C3)ccc2[nH]1,-15.92,7.692
O=S(=O)(NCCc1ccccc1F)N1CCOCC1,-7.623,1.064
CCc1csc(C2CCCN(C(=O)c3c[nH]c(C)n3)C2)n1 (stereo not drawn),0.4235,-38.36
c1ccc(-c2ncc(CN3CCC4(CCNCC4)C3)cn2)cc1,-50.12,8.333
CCC(C)(C)c1cc(-c2c(C)nn(CCO)c2C)c(C#N)c(N)n1,9.362,13.92
COCC1N(C(=O)Nc2ccccc2)[C@H]2CC[C@]1(O)CC2 (stereo partly drawn),-,8.163
Cc1ccc(S(=O)(=O)NCC2CNCCOC2)cc1Cl (stereo not drawn),-0.05058,26.76
Cc1nc(C)n(C2CCCN(C(=O)CCCc3ccccn3)C2)n1 (stereo not drawn),-4.557,6.957
Cc1cccc(C)c1Oc1ncccc1CNC(=O)C1(C)CCCNC1 (stereo not drawn),-0.2309,5.479
Cc1cn(Cc2ccc(F)c(F)c2)nc1N,1.99,2.062
CCn1nc2c(cc1=O)CN(CCCN1CCCC1=O)CC2,30.47,30.7
O=C(CCn1cccn1)NCC(c1cccs1)N1CCOCC1 (stereo not drawn),-,11.29
FC(F)Oc1ccc(NCc2nc(C3CC3)no2)c(OC(F)F)c1,3.333,12.07
CC(C)C(N)C1=N/C(=C2\N=CN=N2)NO1 (stereo not drawn),-4.981,12.5
CCc1nnc2n1CCN(C(=O)c1ccc(C)c(S(N)(=O)=O)c1)C2,10.43,16.05
NC(=O)C1CCN(C(=O)NC2CCc3cc(F)ccc32)CC1 (stereo not drawn),-8.475,7.08
CN(CC1CCN(CCO)CC1)CC(O)c1ccc(F)cc1 (stereo not drawn),-7.542,2.564
O=C(O)C(F)(F)F.O=C(O)C(F)(F)F.[H][C@@]12CCCO[C@]1([H])[C@@H](N(C)Cc1cncnc1)CN2CC1CC1,-1.709,-
COc1cc(C)ccc1OCCC(=O)N1CCCC1Cn1cccn1 (stereo not drawn),-5.085,7.576
CO[C@H]1CO[C@@]2(CCCN(C(=O)C3CC=CC3)C2)C1,-37.7,8.182
CCOC(=O)C1CCN(Cc2csc(C(C)(C)C)n2)CC1,-,7.865
CCCC(O)CN1CCC(=O)N(CCOC)Cc2ccccc21 (stereo not drawn),-27.65,8.163
CN(Cc1cccc(C#N)c1)c1ncc(C(N)=O)cc1Cl,5.568,15.32
O=C1[C@@H]2CCN(CC3CCOCC3)C[C@@H]2OCCN1c1ccccc1,-,17.95
CC(C)n1cc(C(=O)NCC(CO)Cc2cccs2)cn1 (stereo not drawn),-19.63,18.18
COCC(=O)N(C)Cc1nc(N(C)C)ncc1-c1ccncc1,-0.7634,8.633
Cc1ccc(C(=O)NCc2ccccc2S(=O)(=O)N(C)CCO)cc1F,-21.31,6.25
[H][C@]12CN(c3nc4ccccc4s3)CC[C@@]1(O)CCN(S(=O)(=O)N(C)C)C2,-12.73,-
CCS(=O)(=O)N1C[C@@H](O)[C@H](N(C)Cc2ccc(F)cc2)C1,9.924,2.878
COc1cccc(CN2CC(O)CN(S(C)(=O)=O)CC2=O)c1OC (stereo not drawn),-27.87,8.163
Cc1cccc(CN2CCCC3(CCC(=O)N3CCN(C)C)CC2)n1.O=C(O)C(F)(F)F.O=C(O)C(F)(F)F (stereo not drawn),-18.68,-
[H][C@@]12CS(=O)(=O)C[C@]1([H])N(Cc1ccc(C(C)=O)cc1)CCN2CCOC,-8.321,-
Cc1c(C(=O)NCC2CCCO2)nnn1-c1cccc2c1CCN(C)C2 (stereo not drawn),0.8547,2.857
C[C@H](CCO)NS(=O)(=O)c1ccc(Br)cn1,-64.35,1.754
O=C(c1cccc(Cl)c1)C1CCCN(c2nnc(C3CCC3)o2)C1 (stereo not drawn),1.725,28.36
CCCc1cc(NCc2noc(COC)n2)n2nccc2n1,-9.251,17.14
CCc1noc(C(C)N2CCC(NC(=O)c3ccc(C)s3)CC2)n1 (stereo not drawn),6.396,17.92
Cc1nn(C)c(C)c1CC(=O)N1CCCC(n2ccnc2)C1 (stereo not drawn),-0.565,-4.545
CC(C)(C)c1nnc(CN2CCn3c(nnc3C3CC3)C2)o1,-2.311,1.351
CNC(=O)c1ccc(C2CN(C(=O)c3coc(C)n3)CCO2)nc1 (stereo not drawn),-19.63,14.43
CCNC(=O)C1(Cc2cc(-c3ccc(C)cc3)no2)CCCN(C)C1 (stereo not drawn),-6.22,7.143
Cc1ncsc1CCN(C)C(=O)CN1CC2(CCNCC2)OC1=O,1.511,28.21
Cc1cnccc1N1CCN(c2nccc(CCC(F)(F)F)n2)CC1,13.81,44.74
CN(C)C(=O)Cn1cc(C(=O)NCCc2ccc(C(F)(F)F)cc2)nn1,7.065,14.29
CCN(c1cccc(F)c1)S(=O)(=O)c1cc(C(=O)O)cc2c1CCC2,-3.196,10.83
O=C(NCCc1nnc[nH]1)Nc1cccc(SC(F)F)c1,-4.528,21.98
Cc1ccc(NC(=O)c2n[nH]c(-n3cnnc3)n2)cc1C,5.977,7.767
Nc1nccc(C2CN(Cc3ccc(-c4ccccc4C(=O)O)o3)C2)n1,-1.655,54.93
CNC(=O)NC(=O)CCSCc1cc(Cl)cc2cccnc12,-19.83,20.48
O=C(c1c(F)cc(Br)cc1F)N1CCc2cnccc21,-5.626,9.639
[H][C@@]12CS(=O)(=O)C[C@]1([H])N(C(=O)Nc1cccc(F)c1)CCN2C(=O)CC,-1.077,-

Some entries from above, unchanged:

* CN(C)C(=O)Cn1cc(C(=O)NCCc2ccc(C(F)(F)F)cc2)nn1 | Toxoplasma: 7.065%; LiHisRS: 14.29%
* CCc1noc(C(C)N2CCC(NC(=O)c3ccc(C)s3)CC2)n1 (stereo not drawn) | Toxoplasma: 6.396%; LiHisRS: 17.92%
* O=C1[C@@H]2CCN(CC3CCOCC3)C[C@@H]2OCCN1c1ccccc1 | LiHisRS: 17.95%

Data taken from ChEMBL document CHEMBL3988442, “University of Dundee, Small-Polar-MMV Screening Library” (2021).